We go through 80 compounds from publication PMC12040169 (PLOS Biology, 2025).

This is one part of the list.

The experiment has as its system T1, CTL2-GFP (C. trachomatis L2/434/Bu, GFP-expressing).
T1 construct: L2/434/Bu, GFP-expressing
More on the design: species or system HeLa; Intracellular C. trachomatis growth in HeLa cells, bulk GFP fluorescence relative to DMSO. The conditions noted are these: bulk GFP, single well; 28.5 h, 10 µM; inhibitor.
For the compound `O=C(O)CCC(NC(=O)c1ccc(I)cc1)C(=O)O` (centres unmarked) [CBK087614], the “% of control remaining” value is on record as 117.05%. To `CCCCOc1ccc(S(=O)(=O)n2ccc3cc(N4CCNCC4)ccc32)cc1` [CBK001315C] belongs 42.6967%; to `O=[N+]([O-])c1cccc(S(=O)(=O)NCCCn2ccnc2)c1` [CBK266676], 98.7934%. The figure for `CC1=C(C(=O)OCC(C)C)C(c2ccc(C)cc2)N2C(=O)C(C)SC2=N1` (centres unmarked) [CBK091646] is 111.133%; for `COc1ccc(C)cc1C1(CNC(=O)N2CCC(C)(O)C2)CCOCC1` (centres unmarked) [CBK305452] it is 81.465%; for `Cn1cc(CCNC(=O)Nc2ccc(N3CCCCC3)nc2)cn1` [CBK305656] it is 88.5844%. The figure for `CCOC(=O)C1CCN(CCC(=O)Nc2ccc(F)c(F)c2)CC1` [CBK264252] is 106.415%; for `CN(Cc1cnn(C)c1)C(=O)c1ccc(Cl)cc1Br` [CBK305404] it is 110.21%; for `Cc1c(-c2csc(CC#N)n2)sc2ccccc12` [CBK020828] it is 150.671%. Take `O=S(=O)(/N=C(/Nc1nccs1)c1ccccc1)c1cccs1` [CBK268709]: the “% of control remaining” value was found to be 161.131%.

Turning to `Brc1ccc(OCc2ccccc2)c(CNCCN2CCOCC2)c1` [CBK278171C], the “% of control remaining” value amounted to 100%.

As for `CC(=O)c1cc(C(=O)N(C)CCOc2ccccc2)cs1` [CBK282560], the “% of control remaining” value is reported as 129.085%. The figure for `Cc1ccc(C(=O)N(Cc2ccncc2)C2CCCCC2)cc1C` [CBK085386] is 106.423%; for `O=C(NCCc1nc2ccccc2[nH]1)c1cccc(Cl)c1` [CBK263514] it is 114.466%. The figure for `COc1ccc(/C=C/C(=O)Nc2cc(S(N)(=O)=O)ccc2C)cc1` [CBK262651] is 100%; for `COc1ccc(N2CCN(C(=O)CCC(=O)c3cccs3)CC2)cc1` [CBK091413] it is 141.056%. The figure for `O=C(N[C@H]1CCN2C(=O)c3cc(-c4ccc5c(c4)OCO5)ccc3NC(=O)[C@H]12)C1CCCC1` [CBK289333] is 113.975%; for `CCCc1cc(CNC(=O)C(C)n2ccnc2)on1` (centres unmarked) [CBK282046] it is 111.583%; for `COc1ccc([C@@]23CC[C@@H](NC(=O)Nc4ccc(Cl)c(F)c4)C[C@@H]2N(C(C)C)CC3)cc1OC` [CBK056852T] it is 81.5191%. Take `COc1ccc(S(=O)(=O)Nc2ccc(C(=O)O)cc2)cc1[N+](=O)[O-]` [CBK266130]: the “% of control remaining” value came to 201.212%. To `Cc1nc2n(n1)C(c1ccccn1)C1=C(CC(C)CC1=O)N2` (centres unmarked) [CBK288230] belongs 114.487%; to `CCCc1ccc(-c2nccn2CCn2cc(C)nn2)o1` [CBK307688], 87.9858%; to `Cc1cccc(S(=O)(=O)Nc2cc(OCCN3CCOCC3)c3occc3c2)c1` [CBK067420C], 121.328%. To `CC(=O)Nc1ccc(-c2ccc(COC3CCN(C(=O)OC(C)(C)C)CC3)cc2)cc1` [CBK138215] belongs 51.2222%. To `CSCC(CSC)OC(=O)Nc1ccc(Cl)cc1` [CBK086154] belongs 113.884%; to `Cc1cc(C(=O)CSc2nc3cc(Cl)cnc3[nH]2)c(C)n1C1CC1` [CBK305867], 112.721%; to `O=C(c1cccnc1)N1CCN(C2CC(=O)N(c3ccc(F)cc3)C2=O)CC1` (centres unmarked) [CBK270049], 142.306%. `Cc1nc(COC(=O)c2ccc(C#N)c(C)n2)cs1` [CBK297775]: the “% of control remaining” value is reported as 122.695%.

For `O=C(C(c1ccccc1)c1ccccc1)N1CCC2(CCNC2)C1` (centres unmarked) [CBK156729C], the “% of control remaining” value came out at 123.994%. To `COc1ccc(C)cc1NC(=O)c1cnc2sc(C)cn2c1=O` [CBK287714] belongs 119.203%. To `Cc1ccc(NS(=O)(=O)c2c(Br)sc3ccnc(N4CCN(C)CC4)c23)cc1` [CBK034654C] belongs 92.8935%; to `CC(=O)c1nnnn1C(C)(C)Cc1ccccc1` [CBK022088], 96.8595%. The figure for `CC(C)(C)C1=CC2=NC3(CCCCCCCCCCC3)[C@@H]3C[C@@H](O)[C@@H](O)[C@@H]3N2O1` [CBK303254] is 98.8887%.

Turning to `COc1ccc(C(C)C)cc1-c1cncc(N2CCCCC2CCO)n1` (centres unmarked) [CBK037897], the “% of control remaining” value worked out at 114.077%. The figure for `COC(=O)c1cccn2cc(CN3CCOCC3(C)C)nc12` [CBK304879] is 84.0161%. For the compound `CC1CCCN(CC(C)NC(=O)Cn2cnc3ccc(F)cc3c2=O)C1` (centres unmarked) [CBK305953], the “% of control remaining” value is on record as 122.382%. Take `Cc1cc(COc2nc3ccccc3nc2NCCCCO)no1` [CBK173985]: the “% of control remaining” value came out at 128.463%. To `O=C(c1c[nH]c2ccccc12)N1CCc2ccccc2C1` [CBK200331] belongs 106.916%; to `O=C(N/N=C\c1cccs1)c1n[nH]c2c1CCCC2` [CBK261667], 114.526%; to `COc1ccc(-c2cc(Nc3ccccc3)ncn2)cc1` [CBK090911], 121.577%. To `CC1=CC[C@H]2COC(CN3CCOC3C(C)C)[C@@H]1C2` (some centres unmarked) [CBK019189] belongs 87.8633%. To `Nc1ncc(-c2cc(C(F)(F)F)cc(C(F)(F)F)c2)nc1N1CCC[C@@H]1CO` [CBK063501] belongs 136.691%; to `CCOC(=O)c1sc(NC(=O)C2CCCCC2)nc1C` [CBK057893], 144.398%; to `CCN1CC2(CCC1=O)CCN(c1ccnc(OC)c1C#N)CC2` [CBK307018], 112.876%.

As for `COc1ccc(OC)c(NS(=O)(=O)c2ccc(C(=O)O)cc2)c1` [CBK267603], the “% of control remaining” value was 109.608%. To `Cc1ccc(C2CCCN2C(=O)c2ccc(=O)n(CC(=O)NC3CCCCC3)c2)cc1C` (centres unmarked) [CBK285982] belongs 122.191%; to `c1csc(CNc2nccnc2-c2ccoc2)c1` [CBK036599], 165.396%; to `CC(=O)N1CCC[C@H]2NC(=O)CNC(=O)C3(C/C=C/C[C@H]21)CCN(C(=O)c1ccon1)CC3` [CBK292057], 102.273%.

For `Cc1ccc2c(C)c(C(=O)Nc3ccc(S(N)(=O)=O)cc3)oc2c1` [CBK267661], the “% of control remaining” value stood at 103.352%.

Turning to `COc1ncccc1C(=O)N1CCc2ccccc21` [CBK200402], the “% of control remaining” value is recorded as 91.8561%. To `O=C(O)CC(Cc1ccccc1)C(=O)Nc1ccc(F)cc1` (centres unmarked) [CBK286841] belongs 121.252%; to `N#Cc1ccc(-c2cccs2)nc1SCC(=O)Nc1ccc([N+](=O)[O-])cc1` [CBK066850], 125.232%; to `Cc1ncccc1-c1csc(C2CCCO2)n1` (centres unmarked) [CBK304121], 96.3103%. For the compound `CSc1ncc(Cl)c(C(=O)Nc2nnc(C)s2)n1` [CBK268920], the “% of control remaining” value came to 117.332%. The figure for `CC(C)Oc1ccc(C(=O)C2=C(O)C(=O)N(Cc3cccnc3)C2c2ccncc2)cc1` (centres unmarked) [CBK264920] is 100%; for `CCN(C(=O)Cn1c(C)cc(=O)c2ccccc21)C1CCOC(C)(C)C1` (centres unmarked) [CBK306797] it is 124.318%. The figure for `O=C(Nc1cccnc1)C1CCN(C(=O)OCc2ccccc2)CC1` [CBK083187] is 119.347%; for `O=C(c1cncnc1)N1CCCC2(CCN(C(=O)c3cc(F)c(F)cc3F)C2)C1` (centres unmarked) [CBK131564] it is 71.7084%. `CN1CCC(N(C)C(=O)Nc2ccc3c(c2)OCCO3)C1` (centres unmarked) [CBK156008]: the “% of control remaining” value was 71.4127%. The figure for `Cc1cc(C)n(CC(C)CNC(=O)Cc2csc(N3CCCC3=O)n2)n1` (centres unmarked) [CBK305624] is 76.1667%. The figure for `C[C@]12CN(C(=O)c3ccccc3)C[C@H]1NC(=O)c1ccccc1C2=O` [CBK281657] is 109.754%; for `CN(C)c1cccc(-c2cnc3[nH]c(=O)n(CCc4ccncc4)c3n2)c1` [CBK064628] it is 170.818%; for `O=C1NCCNC(=O)C2(C/C=C/COc3ccccc31)CCN(C(=O)c1ccc3[nH]nnc3c1)CC2` [CBK292000] it is 141.865%. As to `CN(Cc1ccco1)C(=O)NC1CCCc2c1cnn2CCO` (centres unmarked) [CBK306290], the “% of control remaining” value came to 88.9058%. The figure for `O=c1[nH]c2ccccc2nc1-c1ccccc1` [CBK016193] is 123.604%; for `Cc1c(C(=O)N2CCn3nc(CO)cc3C2)n(C)c2ccc(F)cc12` [CBK306552] it is 81.0303%; for `Cc1csc(C(Cc2ccsc2)NC(=O)CCn2ccnc2)n1` (centres unmarked) [CBK285391] it is 115.239%.

Take `Cn1ncc2c(=O)n(Cc3nc(C(C)(C)C)no3)cnc21` [CBK304906]: the “% of control remaining” value is recorded as 66.8693%.

On to `CC(C)S(=O)(=O)N1CC2CCCC(O)(c3cccc(F)c3)C2C1` (centres unmarked) [CBK283109], for which the “% of control remaining” value turned out to be 84.4859%. To `CCC(C(=O)Nc1nccs1)N(C)Cc1n[nH]c2c1CCC2` (centres unmarked) [CBK307685] belongs 137.51%; to `O=C(CCN1CCN(CCO)CC1)Nc1cccc(Br)c1` [CBK058502], 136.166%; to `COCc1cc(C[C@@H]2C[C@H](NS(C)(=O)=O)C2(C)C)no1` [CBK289252], 110.874%. Turning to `N#Cc1cccc(Nc2cncc(-c3cccc(N)c3)n2)c1` [CBK065319], the “% of control remaining” value is reported as 166.016%. Turning to `O=C(CSc1nc2ccccc2c2nc3ccccc3n12)Nc1ccc(Cl)cc1F` [CBK268098], the “% of control remaining” value is listed as 120.744%. The figure for `Cc1cc(C)cc(-c2nnc(SCCC(=O)NC(N)=O)o2)c1` [CBK295164] is 125.806%; for `CN(Cc1ccccc1)c1ncc(-c2ccc(N3CCOCC3)cc2)n2ccnc12` [CBK091275] it is 143.721%; for `CN(C1=NS(=O)(=O)c2ccccc21)c1ccccc1C(=O)O` [CBK287094] it is 113.73%. The figure for `O=C1CC(C(=O)Nc2ccc3c(c2)OCO3)n2c(nc3ccccc32)N1` (centres unmarked) [CBK270177] is 127.773%. The figure for `CNCC(=O)N(CCc1cc(C(F)(F)F)cc(C(F)(F)F)c1)c1ccc2c(c1)OCO2` [CBK001038T] is 92.786%; for `C[C@H]1[C@@H]2[C@@H](O)C([C@H](C)C(=O)N3CCCCC3)CC[C@@]2(C)CC[C@@H]1NC(=O)C1CC1` (some centres unmarked) [CBK289446] it is 114.479%.
